Data as given in paper PMC6913127, “Structures of MERS1, the 5′ processing enzyme of mitochondrial mRNAs in Trypanosoma brucei” (RNA, 2020).
Results are given in words; binding and its absence hold for the method and conditions named. Some entries that bind do so weakly or less than the wild type. Sequences can lack the tags named with a protein.

Experiments:
[1] = target: T1, fluoresceinated control peptide F-…; assay: fluorescence polarisation; purified MERS1 titrated into 1 nM fluoresceinated peptide; 25 mM Tris HCl pH 7.5, 5% (v/v) glycerol, 150 mM NaCl; both purified
T1 sequence (peptide, fluorescein (F-) printed at the N-terminus): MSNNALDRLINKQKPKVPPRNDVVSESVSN

[2] = target: T2, fluoresceinated MERS2 peptide with two proline substitutions F-… (T. brucei); assay: as above
T2 sequence (peptide, fluorescein (F-) printed at the N-terminus): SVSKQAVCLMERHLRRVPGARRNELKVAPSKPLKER

B1: T. brucei MERS1(37–395), his-tagged (enzyme, UniProt B6SBM0 37-395)
chain: LVPRGSMDDALRGELASALDTEGHALPFDVHLQQPHSSGDGTAGDTSTIQLEKLSHPPARFDLLTNSFVYKWQTKAALARKVSGPMREWAAELKYRTGVHIELEPTYPERLSENAVKGSGSDDGDGTQWGAYETADDVDITVYLFGSERGIFNCHKLMEAAIQQDPVYVRLGIFRRLANSSEVEWLMLRRINRELRPPDIPPISLKLPGKWTLLYERYKEAAIRTLWEETGITVDASNVYPTGHLYQTVPQYYWRVPVRYFVAEVPSDIRVEGPQVVPLQYMRNWDARLLRQSPDPIDRAWAQLADPATGCAWMKASMIDQLQKPLRGDNYMAIRYTPPPYSNLQEVVGLGDGSITPSTGNGEDAS
- binding [1]: no binding
- binding [2]: binds weakly
